No constants are given. Whether binding was seen depends on the method and setting. Some binding calls cover weakened binding; strength is not graded here.

The target in this assay is T1, Rad24 (subunit of S.c. Rad24-RFC) (S. cerevisiae) (UniProt P32641).
T1 sequence: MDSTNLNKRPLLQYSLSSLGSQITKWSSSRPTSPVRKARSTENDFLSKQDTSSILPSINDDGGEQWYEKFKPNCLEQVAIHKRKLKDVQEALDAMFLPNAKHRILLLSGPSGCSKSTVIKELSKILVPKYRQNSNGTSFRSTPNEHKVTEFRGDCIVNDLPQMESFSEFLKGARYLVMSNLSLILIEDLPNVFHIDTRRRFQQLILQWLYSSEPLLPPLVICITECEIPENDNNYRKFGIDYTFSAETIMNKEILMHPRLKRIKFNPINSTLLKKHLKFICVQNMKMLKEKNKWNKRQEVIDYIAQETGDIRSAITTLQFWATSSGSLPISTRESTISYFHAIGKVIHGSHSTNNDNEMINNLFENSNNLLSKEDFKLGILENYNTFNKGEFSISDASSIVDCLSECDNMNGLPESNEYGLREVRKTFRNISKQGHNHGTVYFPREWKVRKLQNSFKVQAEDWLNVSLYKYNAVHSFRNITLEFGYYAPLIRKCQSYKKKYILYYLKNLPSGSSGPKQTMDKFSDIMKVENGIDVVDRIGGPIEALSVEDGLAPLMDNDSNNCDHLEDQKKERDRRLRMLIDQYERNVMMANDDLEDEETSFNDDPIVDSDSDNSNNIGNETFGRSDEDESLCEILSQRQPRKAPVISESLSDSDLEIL
The assay is described as follows: cryo-EM structure; purified Rad24-RFC 1.8 μM, 9–1-1 clamp 2.2 μM, double tailed DNA (5′- and 3′-recessed junctions) 2.7 μM, 0.5 mM ATPγS, 5 mM MgAcetate; ice-water bath 30 min; two conformations (clamp closed, clamp open) at 3.2 Å; both purified.

B1: Rfc5 (subunit of S.c. Rad24-RFC) (protein, UniProt P38251 1-354)
chain: MSLWVDKYRPKSLNALSHNEELTNFLKSLSDQPRDLPHLLLYGPNGTGKKTRCMALLESIFGPGVYRLKIDVRQFVTASNRKLELNVVSSPYHLEITPSDMGNNDRIVIQELLKEVAQMEQVDFQDSKDGLAHRYKCVIINEANSLTKDAQAALRRTMEKYSKNIRLIMVCDSMSPIIAPIKSRCLLIRCPAPSDSEISTILSDVVTNERIQLETKDILKRIAQASNGNLRVSLLMLESMALNNELALKSSSPIIKPDWIIVIHKLTRKIVKERSVNSLIECRAVLYDLLAHCIPANIILKELTFSLLDVETLNTTNKSSIIEYSSVFDERLSLGNKAIFHLEGFIAKVMCCLD
For the molecule B1, the binding result is reported as “binds”.

Source of the values: PMC9010301.
